# According to PubChem BioAssay AID330 (DTP/NCI, 2004):
# The list shows only some results of the screen, not a fair sample: it is rich in T/C values a quarter to a half above the control, in often repeated tests (any T/C) and in doses without a T/C. Further doses and runs are listed elsewhere. T/C gives the treated animals as a percentage of the vehicle group. Some doses have a count of surviving animals in place of a T/C: the source files T/C as zero there, which appears to mark a toxic dose or a test without result, not a measured value. Some doses without a T/C left all or most animals alive at the check, yet need not have been tolerated: survival well below the control is almost never listed, so the zero probably covers shortened survival too. Counts of survivors are from the toxicity check (mostly the fifth day) where no day follows; animals may have died later. Schedule codes are those of the source, taken here to give the interval after Q, in days (D) or hours (H), and the number of doses after X. Some entries hold several experiments; their values stand side by side, smallest first. Marks such as (2×) count equal records among those shown. Where survival is the endpoint, this PubChem deposit counts one and a half times the control or more as active, and values a quarter to a half above the control carry no call in these data; other NCI protocols may use other cut-offs. Some T/C values are followed by the survivors on the day toxicity was checked, most often the fifth; where none is given, no animal had died by that day. Some schedule codes hold Z or #, which are not explained here.
# System: P388 leukemia ip, CD2F1 mice, survival T/C
# Experiment: NCI In Vivo Anticancer Drug Screen. Data for tumor model P388 Leukemia (intraperitoneal) in CD2F1 (CDF1) mice
# Conditions: T/C endpoint: median survival time, higher T/C = longer survival
# [1] = dose: 100.0 mg/kg/injection, schedule: Q01DX009 (ip), vehicle: Klucel (hydroxypropylcellulose) (HPC)
# [2] = dose: 100.0 mg/kg/injection, schedule: Q01DX009 (ip), vehicle: saline
# [3] = dose: 200.0 mg/kg/injection, schedule: Q01DX001 (ip), vehicle: Klucel (hydroxypropylcellulose) (HPC)
smiles,measurement,setting,value
O=P1(N(CCCl)CCCl)NCCCO1 (stereo not drawn),survivor count,"dose: 100.0 mg/kg/injection, schedule: Q01DX005 (ip), vehicle: Klucel (hydroxypropylcellulose) (HPC)",3 of 6 and 6 of 6
same,T/C,"dose: 100.0 mg/kg/injection, schedule: Q01DX005 (ip), vehicle: saline, evaluated on day 30","125, 294, 297 % of control"
same,T/C,"dose: 100.0 mg/kg/injection, schedule: Q01DX005 (ip), vehicle: saline, evaluated on day 45",346 % of control
same,survivor count,"dose: 100.0 mg/kg/injection, schedule: Q01DX005 (ip), vehicle: saline",8 of 8
same,T/C,[1],"86, 87 (2×), 89, 92, 98 (3×), 99, 100 (2×), 101 (2×), 102, 103, 105, 106, 107, 109, 111, 115, 116, 120, 125, 134, 137, 145, 147, 153 % of control"
same,survivor count,[1],"5 of 6, 3 of 3, 6 of 6"
same,T/C,[2],"105, 116, 175 % of control"
same,survivor count,[2],6 of 6 and 8 of 8
same,survivor count,"dose: 100.0 mg/kg/injection, schedule: Q01DX009 (ip), vehicle: water",6 of 6
same,T/C,"dose: 100.0 mg/kg/injection, schedule: Q04DX002 (ip), vehicle: Klucel (hydroxypropylcellulose) (HPC)","97, 128, 152, 182, 184, 193, 209, 211, 221, 228, 243, 245 (2×), 250, 254 (2×), 256 (3×), 258, 261, 263, 266, 267, 269, 272, 275 (2×), 277 (2×), 285 (2×), 294 (2×), 303 % of control"
same,T/C,"dose: 100.0 mg/kg/injection, schedule: Q04DX003 (ip), vehicle: Klucel (hydroxypropylcellulose) (HPC), evaluated on day 30","100, 108, 112 [2 of 3 alive], 113, 114, 133, 136, 148, 163, 166 [5 of 6 alive], 169, 179, 189, 191, 210, 226 (2×), 233, 236, 237, 238, 247, 252 (2×), 252 [2 of 2 alive], 253, 254 (2×), 256, 258, 277 (2×), 280, 290, 297 % of control"
same,T/C,"dose: 100.0 mg/kg/injection, schedule: Q04DX003 (ip), vehicle: Klucel (hydroxypropylcellulose) (HPC), evaluated on day 35",173 % of control
same,T/C,"dose: 100.0 mg/kg/injection, schedule: Q04DX003 (ip), vehicle: saline, evaluated on day 10",277 % of control
same,T/C,"dose: 100.0 mg/kg/injection, schedule: Q04DX003 (ip), vehicle: saline, evaluated on day 30",145 % of control
same,T/C,"dose: 100.0 mg/kg/injection, schedule: Q04DX003 (ip), vehicle: saline, evaluated on day 45",303 and 382 % of control
same,T/C,"dose: 100.0 mg/kg/injection, schedule: Q04DX003 (ip), vehicle: saline, evaluated on day 50",135 % of control
same,T/C,"dose: 100.0 mg/kg/injection, schedule: Q## X001 (ip), vehicle: saline","96, 115 [9 of 10 alive], 135, 194 % of control"
same,T/C,"dose: 133.0 mg/kg/injection, schedule: Q01DX001 (ip), vehicle: saline, evaluated on day 11",220 % of control
same,T/C,"dose: 133.0 mg/kg/injection, schedule: Q01DX001 (ip), vehicle: saline, evaluated on day 60","196, 428 [9 of 10 alive], 532 % of control"
same,T/C,"dose: 150.0 mg/kg/injection, schedule: Q01DX001 (ip), vehicle: saline, evaluated on day 5",190 and 200 % of control
same,T/C,"dose: 150.0 mg/kg/injection, schedule: Q01DX001 (ip), vehicle: saline, evaluated on day 9","104, 111, 112, 231, 243, 257, 260 % of control"
same,T/C,"dose: 160.0 mg/kg/injection, schedule: Q01DX005 (ip), vehicle: saline, evaluated on day 30","87 (2×), 89, 90, 91, 106, 110, 117, 123, 150, 158, 168, 255, 276, 283, 287, 294 (2×), 300 % of control"
same,T/C,"dose: 160.0 mg/kg/injection, schedule: Q01DX005 (ip), vehicle: saline, evaluated on day 35",100 % of control
same,T/C,"dose: 160.0 mg/kg/injection, schedule: Q01DX005 (ip), vehicle: saline, evaluated on day 60",100 and 116 % of control
same,survivor count,"dose: 160.0 mg/kg/injection, schedule: Q01DX005 (ip), vehicle: saline",5 of 6 and 6 of 6
same,T/C,"dose: 160.0 mg/kg/injection, schedule: Q01DX009 (ip), vehicle: saline, evaluated on day 30","88, 91, 94 (2×), 96, 98, 99, 100, 101, 103, 106, 113, 121, 130 % of control"
same,T/C,"dose: 160.0 mg/kg/injection, schedule: Q01DX009 (ip), vehicle: saline, evaluated on day 35",97 % of control
same,T/C,"dose: 160.0 mg/kg/injection, schedule: Q01DX009 (ip), vehicle: saline, evaluated on day 60",97 and 99 % of control
same,survivor count,"dose: 160.0 mg/kg/injection, schedule: Q01DX009 (ip), vehicle: saline",5 of 6 and 6 of 6
same,T/C,"dose: 160.0 mg/kg/injection, schedule: Q04DX003 (ip), vehicle: water",144 % of control
same,T/C,"dose: 160.0 mg/kg/injection, schedule: Q04DX003 (iv), vehicle: saline",126 % of control
same,T/C,"dose: 165.0 mg/kg/injection, schedule: Q04DX003 (ip), vehicle: saline",126 % of control
same,T/C,"dose: 175.0 mg/kg/injection, schedule: Q01DX001 (ip), vehicle: saline, evaluated on day 45","252, 262, 390, 432, 450 % of control"
same,T/C,"dose: 175.0 mg/kg/injection, schedule: Q01DX001 (ip), vehicle: saline, evaluated on day 60","184, 336 [9 of 10 alive], 358, 360, 433, 566 % of control"
same,T/C,[3],"105 (2×), 113 [5 of 6 alive], 150, 199, 228, 243, 247, 255, 262, 264, 266, 267 (4×), 270, 274, 280, 282 (2×), 285, 287 [5 of 6 alive], 291 (3×), 294, 296, 297 % of control"
same,survivor count,[3],3 of 3 and 6 of 6 (2×)
same,T/C,"dose: 200.0 mg/kg/injection, schedule: Q01DX001 (ip), vehicle: saline, evaluated on day 5","185, 242, 252, 302 % of control"
same,T/C,"dose: 200.0 mg/kg/injection, schedule: Q01DX001 (ip), vehicle: saline, evaluated on day 9","95, 176, 232 % of control"
same,T/C,"dose: 200.0 mg/kg/injection, schedule: Q01DX001 (ip), vehicle: saline, evaluated on day 10",281 % of control
same,T/C,"dose: 200.0 mg/kg/injection, schedule: Q01DX001 (ip), vehicle: saline, evaluated on day 11",262 % of control
same,T/C,"dose: 200.0 mg/kg/injection, schedule: Q01DX001 (ip), vehicle: saline, evaluated on day 20",262 % of control [4 of 7 alive]
same,T/C,"dose: 200.0 mg/kg/injection, schedule: Q01DX001 (ip), vehicle: saline, evaluated on day 21",194 % of control
same,T/C,"dose: 200.0 mg/kg/injection, schedule: Q01DX001 (ip), vehicle: saline, evaluated on day 30","108 [1 of 1 alive], 163, 209, 220, 231, 243 [2 of 2 alive], 245, 250 (2×), 265 (2×), 267, 270, 274, 277, 283, 285, 294 (2×), 297 (3×), 300 (3×), 300 [5 of 6 alive], 309 % of control"
